No constants are given. Whether binding was seen depends on the method and setting. Binding seen in cells or lysates may run through a third protein. Binding can be weak; no strength is given.

Chains of the proteins cited; added tags and fusions are not shown. Lines headed by an entry give the natural chain unless they say otherwise; changes in a name come on top.
UniProt Q9BTC0: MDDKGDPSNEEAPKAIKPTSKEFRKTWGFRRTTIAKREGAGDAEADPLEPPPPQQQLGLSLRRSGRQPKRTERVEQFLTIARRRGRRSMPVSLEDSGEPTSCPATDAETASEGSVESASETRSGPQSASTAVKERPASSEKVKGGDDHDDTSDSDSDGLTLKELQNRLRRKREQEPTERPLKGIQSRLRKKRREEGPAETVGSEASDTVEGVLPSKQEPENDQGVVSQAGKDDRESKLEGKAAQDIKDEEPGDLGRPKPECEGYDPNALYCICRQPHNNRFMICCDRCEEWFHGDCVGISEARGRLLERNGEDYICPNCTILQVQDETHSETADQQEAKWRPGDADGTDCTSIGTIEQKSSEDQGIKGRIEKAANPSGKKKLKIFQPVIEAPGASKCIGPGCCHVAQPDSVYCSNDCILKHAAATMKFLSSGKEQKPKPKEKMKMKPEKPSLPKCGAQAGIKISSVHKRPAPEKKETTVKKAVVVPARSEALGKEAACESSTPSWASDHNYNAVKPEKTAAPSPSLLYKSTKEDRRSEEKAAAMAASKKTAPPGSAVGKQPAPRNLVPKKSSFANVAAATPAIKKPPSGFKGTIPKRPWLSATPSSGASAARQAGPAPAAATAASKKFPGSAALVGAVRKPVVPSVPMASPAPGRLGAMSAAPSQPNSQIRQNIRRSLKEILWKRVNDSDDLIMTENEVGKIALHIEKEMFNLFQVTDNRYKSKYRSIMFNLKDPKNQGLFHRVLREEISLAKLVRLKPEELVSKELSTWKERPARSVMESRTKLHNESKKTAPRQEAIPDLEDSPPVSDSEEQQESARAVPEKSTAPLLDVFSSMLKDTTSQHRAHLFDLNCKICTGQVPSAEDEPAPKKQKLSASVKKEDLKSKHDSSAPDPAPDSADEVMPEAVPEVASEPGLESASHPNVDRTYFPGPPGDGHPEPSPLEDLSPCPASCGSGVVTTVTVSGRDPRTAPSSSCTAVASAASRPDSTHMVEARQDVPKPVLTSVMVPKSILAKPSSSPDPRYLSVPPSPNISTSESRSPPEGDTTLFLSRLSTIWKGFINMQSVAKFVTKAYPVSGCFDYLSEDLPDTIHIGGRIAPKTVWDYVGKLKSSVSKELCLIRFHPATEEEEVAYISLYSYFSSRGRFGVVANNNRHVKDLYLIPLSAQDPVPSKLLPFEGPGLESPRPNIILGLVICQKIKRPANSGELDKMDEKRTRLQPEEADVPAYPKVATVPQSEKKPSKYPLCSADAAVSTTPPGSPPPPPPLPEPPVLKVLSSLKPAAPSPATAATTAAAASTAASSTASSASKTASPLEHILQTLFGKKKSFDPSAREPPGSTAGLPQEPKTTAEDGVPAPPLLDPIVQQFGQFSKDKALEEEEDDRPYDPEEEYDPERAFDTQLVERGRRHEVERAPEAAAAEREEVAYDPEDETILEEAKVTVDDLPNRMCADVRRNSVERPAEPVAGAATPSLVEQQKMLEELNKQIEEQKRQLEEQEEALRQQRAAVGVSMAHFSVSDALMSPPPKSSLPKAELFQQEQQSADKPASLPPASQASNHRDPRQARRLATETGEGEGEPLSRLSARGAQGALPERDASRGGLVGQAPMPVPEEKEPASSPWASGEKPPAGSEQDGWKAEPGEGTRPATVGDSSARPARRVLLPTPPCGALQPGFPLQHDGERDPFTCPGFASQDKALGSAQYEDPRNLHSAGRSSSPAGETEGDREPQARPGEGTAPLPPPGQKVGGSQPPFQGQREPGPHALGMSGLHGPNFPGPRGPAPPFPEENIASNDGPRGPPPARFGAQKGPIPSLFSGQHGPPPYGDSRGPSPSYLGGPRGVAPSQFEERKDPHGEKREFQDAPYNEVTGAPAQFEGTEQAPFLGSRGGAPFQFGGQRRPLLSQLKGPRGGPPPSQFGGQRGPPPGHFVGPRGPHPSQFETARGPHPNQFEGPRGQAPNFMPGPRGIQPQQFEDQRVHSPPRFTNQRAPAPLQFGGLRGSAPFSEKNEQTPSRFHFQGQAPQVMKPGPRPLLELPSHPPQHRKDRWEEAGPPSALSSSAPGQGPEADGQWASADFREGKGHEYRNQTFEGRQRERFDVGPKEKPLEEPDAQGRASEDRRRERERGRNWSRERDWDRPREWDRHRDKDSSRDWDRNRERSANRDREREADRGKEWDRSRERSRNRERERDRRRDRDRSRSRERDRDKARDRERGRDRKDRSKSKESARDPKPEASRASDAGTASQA
UniProt Q92576: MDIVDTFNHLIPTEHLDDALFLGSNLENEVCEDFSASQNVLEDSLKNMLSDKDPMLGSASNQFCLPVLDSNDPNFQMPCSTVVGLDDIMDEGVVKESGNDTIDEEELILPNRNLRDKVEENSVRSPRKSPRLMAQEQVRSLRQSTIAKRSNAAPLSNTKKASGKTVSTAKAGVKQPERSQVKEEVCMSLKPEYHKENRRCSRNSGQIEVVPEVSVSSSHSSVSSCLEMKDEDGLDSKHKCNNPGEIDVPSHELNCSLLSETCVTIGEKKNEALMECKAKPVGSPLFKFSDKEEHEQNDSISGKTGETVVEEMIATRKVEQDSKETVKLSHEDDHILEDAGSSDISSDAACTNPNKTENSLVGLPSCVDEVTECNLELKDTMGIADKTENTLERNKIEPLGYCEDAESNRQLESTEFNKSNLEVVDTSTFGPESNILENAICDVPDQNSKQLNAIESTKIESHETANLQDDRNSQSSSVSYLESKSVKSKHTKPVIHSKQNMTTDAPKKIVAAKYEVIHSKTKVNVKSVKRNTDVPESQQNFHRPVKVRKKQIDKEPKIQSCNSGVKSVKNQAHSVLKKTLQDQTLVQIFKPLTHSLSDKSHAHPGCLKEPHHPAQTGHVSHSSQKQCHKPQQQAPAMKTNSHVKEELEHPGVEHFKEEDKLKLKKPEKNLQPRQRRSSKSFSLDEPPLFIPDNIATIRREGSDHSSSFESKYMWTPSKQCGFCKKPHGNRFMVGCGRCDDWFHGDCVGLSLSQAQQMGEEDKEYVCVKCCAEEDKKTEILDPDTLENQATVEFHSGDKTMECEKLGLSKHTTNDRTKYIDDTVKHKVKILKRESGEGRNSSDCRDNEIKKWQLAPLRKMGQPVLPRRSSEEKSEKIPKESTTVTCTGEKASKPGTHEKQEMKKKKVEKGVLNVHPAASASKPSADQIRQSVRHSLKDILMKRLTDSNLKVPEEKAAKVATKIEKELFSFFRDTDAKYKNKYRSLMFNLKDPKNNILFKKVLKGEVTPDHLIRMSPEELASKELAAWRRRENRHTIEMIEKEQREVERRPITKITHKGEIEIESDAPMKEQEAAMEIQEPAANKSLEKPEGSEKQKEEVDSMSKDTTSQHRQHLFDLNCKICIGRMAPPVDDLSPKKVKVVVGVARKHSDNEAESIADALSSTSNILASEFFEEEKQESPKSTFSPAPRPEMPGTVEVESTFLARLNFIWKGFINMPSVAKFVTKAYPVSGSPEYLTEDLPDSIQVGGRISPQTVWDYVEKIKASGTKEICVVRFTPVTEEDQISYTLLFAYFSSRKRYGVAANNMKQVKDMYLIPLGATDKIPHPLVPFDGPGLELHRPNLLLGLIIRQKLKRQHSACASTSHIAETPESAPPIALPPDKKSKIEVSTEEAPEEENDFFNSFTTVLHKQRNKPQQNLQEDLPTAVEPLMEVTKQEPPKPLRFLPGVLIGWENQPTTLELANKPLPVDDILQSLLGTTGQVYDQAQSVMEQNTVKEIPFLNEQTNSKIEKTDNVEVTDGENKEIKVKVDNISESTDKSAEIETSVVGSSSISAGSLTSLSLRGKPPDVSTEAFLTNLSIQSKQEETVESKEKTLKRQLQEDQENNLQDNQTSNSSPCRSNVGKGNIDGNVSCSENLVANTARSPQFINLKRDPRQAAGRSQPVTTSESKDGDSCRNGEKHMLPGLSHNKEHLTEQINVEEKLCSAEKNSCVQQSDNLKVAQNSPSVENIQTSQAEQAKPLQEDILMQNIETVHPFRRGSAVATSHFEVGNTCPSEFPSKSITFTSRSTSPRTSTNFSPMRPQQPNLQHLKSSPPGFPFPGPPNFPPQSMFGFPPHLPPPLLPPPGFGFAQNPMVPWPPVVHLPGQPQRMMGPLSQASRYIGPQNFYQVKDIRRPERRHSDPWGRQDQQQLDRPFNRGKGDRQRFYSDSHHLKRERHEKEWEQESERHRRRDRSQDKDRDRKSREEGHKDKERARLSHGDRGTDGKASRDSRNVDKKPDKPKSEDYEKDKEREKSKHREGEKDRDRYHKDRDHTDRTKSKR
UniProt Q9H5H4: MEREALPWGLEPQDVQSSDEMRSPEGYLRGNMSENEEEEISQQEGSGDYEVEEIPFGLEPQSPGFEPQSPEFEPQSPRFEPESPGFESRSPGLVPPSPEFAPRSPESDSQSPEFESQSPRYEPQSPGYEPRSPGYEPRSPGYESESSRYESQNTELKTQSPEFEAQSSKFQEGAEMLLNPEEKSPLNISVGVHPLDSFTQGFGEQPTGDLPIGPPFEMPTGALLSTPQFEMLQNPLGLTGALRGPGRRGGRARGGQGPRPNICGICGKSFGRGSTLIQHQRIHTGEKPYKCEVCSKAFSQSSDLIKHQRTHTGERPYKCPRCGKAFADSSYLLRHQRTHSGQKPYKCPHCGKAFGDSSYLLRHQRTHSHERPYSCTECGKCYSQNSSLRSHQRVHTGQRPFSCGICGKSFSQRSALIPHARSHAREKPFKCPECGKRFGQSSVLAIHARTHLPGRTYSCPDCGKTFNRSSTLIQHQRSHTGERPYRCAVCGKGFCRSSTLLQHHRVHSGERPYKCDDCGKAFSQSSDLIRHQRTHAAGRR

Some targets named below: FLAG-DIDO3 ∆SPOC (UniProt Q9BTC0); FLAG-DIDO1 ∆N; FLAG-DIDO2 ∆N; FLAG-DIDO3 ∆N; FLAG-DIDO1; FLAG-DIDO2.
Assay in all cases: co-IP; anti-FLAG M2 magnetic beads on lysates of HEK293T transfected with FLAG-DIDO constructs (150 mM NaCl, 0.1% Triton, benzonase), eluted with 3xFLAG peptide, western blot with antibodies against mass spectrometry hits; performed once
A general note: Immunoblotting shows a protein as a band on a membrane.

Consider “PHD finger protein 3 (PHF3), endogenous (from UniProt Q92576 1-2039)”, for which the binding result with FLAG-DIDO3 ∆SPOC was “binds”.

Take ZNF768 (from UniProt Q9H5H4 1-540): in the assay with FLAG-DIDO3 ∆SPOC, the binding result is given as “binds”.

B1: HCFC2 (protein, UniProt Q9Y5Z7 1-792)
chain: MAAPSLLNWRRVSSFTGPVPRARHGHRAVAIRELMIIFGGGNEGIADELHVYNTATNQWFLPAVRGDIPPGCAAHGFVCDGTRILVFGGMVEYGRYSNELYELQASRWLWKKVKPHPPPSGLPPCPRLGHSFSLYGNKCYLFGGLANESEDSNNNVPRYLNDFYELELQHGSGVVGWSIPVTKGVVPSPRESHTAVIYCKKDSGSPKMYVFGGMCGARLDDLWQLDLETMSWSKPETKGTVPLPRSLHTASVIGNKMYIFGGWVPHKGENTETSPHDCEWRCTSSFSYLNLDTTEWTTLVSDSQEDKKNSRPRPRAGHCAVAIGTRLYFWSGRDGYKKALNSQVCCKDLWYLDTEKPPAPSQVQLIKATTNSFHVKWDEVSTVEGYLLQLSTDLPYQAASSDSSAAPNMQGVRMDPHRQGSNNIVPNSINDTINSTKTEQPATKETSMKNKPDFKALTDSNAILYPSLASNASNHNSHVVDMLRKNEGPHTSANVGVLSSCLDVRTVIPETSVSSTVSSTQTMVTQQTIKTESSSTNGAVVKDETSLTTFSTKSEVDETYALPATKISRVETHATATPFSKETPSNPVATVKAGERQWCDVGIFKNNTALVSQFYLLPKGKQSISKVGNADVPDYSLLKKQDLVPGTGYRFRVAAINGCGIGPFSKISEFKTCIPGFPGAPSAVRISKNVEGIHLSWEPPTSPSGNILEYSAYLAIRTAQIQDNPSQLVFMRIYCGLKTSCIVTAGQLANAHIDYTSRPAIVFRISAKNEKGYGPATQVRWLQGNNKKAPLN
With B1, the binding result with FLAG-DIDO1 ∆N, with FLAG-DIDO3 ∆SPOC, in the assay with FLAG-DIDO2 ∆N, in the assay with FLAG-DIDO3 ∆N, with FLAG-DIDO1 and with FLAG-DIDO2 was “binds” in each case.
